Read-outs that look alike come from different tables or passages of the source. Screen size: about 3,300 compounds; about 95 (3%) showed an effect of 50% or more. The list shows a part of the results. Numbered stars: 1 amine (or outer) side, 2 acyl side, 3 side chain; on linkers, the order of the positions; unused ones are H or OH. Bridge positions count the residues as written; N and C are the ends. Square brackets hold non-standard residues; d marks the D form. Peptide text beside a SMILES is read from it. hTyr(3S-OH,4S-OH,3'-OSO3H) = N[C@H](C(=O)O)[C@H](O)[C@@H](O)c1ccc(O)c(OS(=O)(=O)O)c1; Orn(4R-OH,5R-OH) = O=C([C@H](C[C@@H](O)[C@@H](O)N[*:3])N[*:1])[*:2]; Pro(3S-OH,4S-Me) = C[C@H]1CN[C@H](C(=O)O)[C@H]1O; Gln(3R-OH) = NC(=O)C[C@@H](O)[C@H](N)C(=O)O; Hyp = O=C(O)[C@@H]1C[C@@H](O)CN1
Test system: HCoV-229E
Design: species or system Huh-7; HTS, protection from HCoV-229E induced cell death, luminescent cell viability (CellCounting-Lite 2.0), inhibition rate
Conditions: 24 h post infection, 1 h compound pre-incubation, 10 µM, inhibitor

SMILES	229E Inhibition rate	229E Inhibition rate (229E Inhibition rate, 24 h)
C[C@]12C=CC(=O)C=C1CC[C@H]1[C@@H]3C[C@@H](O)[C@](O)(C(=O)CO)[C@@]3(C)C[C@H](O)[C@@]12F [Triamcinolone]	0%	
O=C(O)C(=O)Cc1ccc(O)cc1 [4-Hydroxyphenylpyruvic acid]	21.1%	
COc1cc(-c2cc(=O)c3c(O)cc(O[C@@H]4O[C@H](CO)[C@@H](O)[C@H](O)[C@H]4O[C@@H]4OC[C@](O)(CO)[C@H]4O)cc3o2)ccc1O [3'-Methoxyapiin]	18.5%	
Nc1nc(N)nc(NC2CC2)n1 [Cyromazine]	6.2%	
C[C@@H]1O[C@@H](OC[C@H]2O[C@@H](Oc3c(-c4ccc(OCCO)c(OCCO)c4)oc4cc(OCCO)cc(O)c4c3=O)[C@H](O)[C@@H](O)[C@@H]2O)[C@H](O)[C@H](O)[C@H]1O [Troxerutin]	50.2%	
C=C1CC[C@H]2C[C@@H]1C2(C)C [β-Pinene]	40.3%	
C[C@@H](O)[C@@H]1NC(=O)[C@@H](N)C[C@@H](O)[C@@H](O)NC(=O)[C@@H]2[C@@H](O)[C@@H](C)CN2C(=O)[C@H]([C@H](O)CC(N)=O)NC(=O)[C@H]([C@H](O)[C@@H](O)c2ccc(O)c(OS(=O)(=O)O)c2)NC(=O)[C@@H]2C[C@@H](O)CN2C1=O [FR179642] (H-[Orn(4R-OH,5R-OH)]T[Hyp][hTyr(3S-OH,4S-OH,3'-OSO3H)][Gln(3R-OH)][Pro(3S-OH,4S-Me)]; lactam 1-C)	10.5%	
O=c1c(O[C@@H]2O[C@H](CO)[C@@H](O)[C@H](O)[C@H]2O)c(-c2ccc(O)c(O)c2)oc2cc(O)cc(O)c12 [Isoquercitrin]		7.7%
COc1ccc(/C=C/C(=O)c2ccc(OC)cc2)cc1 [4,4'-Dimethoxychalcone]	21.7%	
CC(C)C[C@H](O)C(=O)O [(S)-Leucic acid]	20.8%	
CC(C)=CC/C=C(\C)[C@H]1CC[C@]2(C)[C@@H]1[C@H](O)C[C@@H]1[C@@]3(C)CC[C@H](O[C@@H]4O[C@H](CO)[C@@H](O)[C@H](O)[C@H]4O[C@@H]4O[C@H](CO)[C@@H](O)[C@H](O)[C@H]4O)C(C)(C)[C@@H]3CC[C@]12C [Ginsenoside Rg5]	9.8%	
C=C[C@H](O)CC(=NOS(=O)(=O)O)S[C@@H]1O[C@H](CO)[C@@H](O)[C@H](O)[C@H]1O [Progoitrin]	26%	
CCCCCCCC/C=C\CCCCCCCC(=O)NCCO [Oleoylethanolamide]	11.2%	
O=C(O)[C@H](O)[C@@H](O)[C@H](O[C@@H]1O[C@H](CO)[C@H](O)[C@H](O)[C@H]1O)[C@H](O)CO [Lactobionic acid]	13.6%	
O=c1c2ccccc2nc2n1CC[C@@H]2O [Vasicinone]	9.2%	
C#C[C@]1(O)CC[C@H]2[C@@H]3CCc4cc(O)ccc4[C@H]3CC[C@@]21C [Ethynyl Estradiol]	15.3%	

2 records drawn at random from those above, as already listed:
SMILES	229E Inhibition rate	229E Inhibition rate (229E Inhibition rate, 24 h)
C[C@]12C=CC(=O)C=C1CC[C@H]1[C@@H]3C[C@@H](O)[C@](O)(C(=O)CO)[C@@]3(C)C[C@H](O)[C@@]12F [Triamcinolone]	0%	
C=C1CC[C@H]2C[C@@H]1C2(C)C [β-Pinene]	40.3%	

(list continues)

SMILES	229E Inhibition rate	229E Inhibition rate (229E Inhibition rate, 24 h)
OCc1cccc2ccccc12 [1-Naphthalenemethanol]	7.4%	
CC(C)=CCC[C@](C)(O[C@@H]1O[C@H](CO[C@@H]2OC[C@@H](O)[C@H](O)[C@H]2O)[C@@H](O)[C@H](O)[C@H]1O)[C@H]1CC[C@]2(C)[C@@H]1[C@H](O)C[C@@H]1[C@@]3(C)CC[C@H](O[C@@H]4O[C@H](CO)[C@@H](O)[C@H](O)[C@H]4O[C@@H]4O[C@H](CO)[C@@H](O)[C@H](O)[C@H]4O[C@@H]4OC[C@@H](O)[C@H](O)[C@H]4O)C(C)(C)[C@@H]3CC[C@]12C [Notoginsenoside Fc]	21%	
Cc1occc(=O)c1O [Maltol]	35.7%	
C[C@@H]1O[C@H]2O[C@H]3[C@@H](OC[C@H](O)[C@@H]3O)OC(=O)[C@]34CCC(C)(C)C[C@H]3C3=CC[C@@H]5[C@@]6(C)C[C@H](O)[C@H](O[C@@H]7O[C@H](CO)[C@@H](O)[C@H](O)[C@H]7O[C@@H]7OC[C@H](OC(=O)C[C@](C)(O)CC(=O)O[C@@H]1[C@@H](O[C@@H]1OC[C@@H](O)[C@H](O)[C@H]1O)[C@H]2O)[C@H](O)[C@H]7O)[C@@](C)(CO)[C@@H]6CC[C@@]5(C)[C@]3(C)C[C@H]4O [Tubeimoside II]	0.9%	
O=C(O)c1ccoc1 [3-Furanoic acid]	25.5%	
OC[C@H]1O[C@H](O[C@H]2[C@H](O)[C@@H](O)[C@H](O)O[C@@H]2CO)[C@H](O)[C@@H](O)[C@@H]1O [Maltose]		7.5%
CC(C)=CCC[C@](C)(O[C@@H]1O[C@H](CO)[C@@H](O)[C@H](O)[C@H]1O)[C@H]1CC[C@]2(C)[C@@H]1[C@H](O)C[C@@H]1[C@@]3(C)C[C@@H](O)[C@H](O[C@@H]4O[C@H](CO)[C@@H](O)[C@H](O)[C@H]4O[C@@H]4O[C@H](CO)[C@@H](O)[C@H](O)[C@H]4O)C(C)(C)[C@@H]3CC[C@]12C [Gypenoside XLVI]	10.6%	
COc1ccc2[nH]cc(CC(=O)O)c2c1 [5-Methoxyindole-3-acetic acid]	8.7%	
CC1(C)C2=CCCC(C)(C)[C@]23CC[C@H]1C3 [Isolongifolene]	0%	
COc1ccc2c(c1OC)C(=O)OC2 [Meconine]	3.9%	
COc1cc(OC)cc(C(=O)O)c1 [3,5-Dimethoxybenzoic acid]	7.6%	
OC[C@H]1O[C@H](OC[C@H]2OC(O)[C@H](O)[C@@H](O)[C@@H]2O)[C@H](O)[C@@H](O)[C@@H]1O (stereo partly shown) [Isomaltose]	12.3%	
CC[C@@H]1[C@H]2CCCCN3[C@H]2[C@H](C[C@H]3[C@@H]2C[C@H](C)C(=O)O2)[C@@H]2[C@H]1OC(=O)[C@H]2C [Tuberostemonine]	32.6%	
Cc1cc(O)c(C(=O)CCC(C)C)c(=O)o1 [Pogostone]	6.7%	
Nc1ncnc2c1ncn2[C@H]1C[C@H](O)[C@@H](COP(=O)(O)O)O1 [2'-Deoxyadenosine-5'-monophosphate]	0%	
